6 molecules from article PMC4332150 can be followed below.

Sequences of proteins named here, by UniProt entry; tags and fusion partners are left off.
UniProt P61244: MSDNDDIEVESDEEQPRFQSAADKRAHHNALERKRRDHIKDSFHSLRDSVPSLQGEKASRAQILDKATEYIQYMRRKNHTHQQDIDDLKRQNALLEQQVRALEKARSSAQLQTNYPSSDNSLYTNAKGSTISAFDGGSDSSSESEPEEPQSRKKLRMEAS
UniProt P05412: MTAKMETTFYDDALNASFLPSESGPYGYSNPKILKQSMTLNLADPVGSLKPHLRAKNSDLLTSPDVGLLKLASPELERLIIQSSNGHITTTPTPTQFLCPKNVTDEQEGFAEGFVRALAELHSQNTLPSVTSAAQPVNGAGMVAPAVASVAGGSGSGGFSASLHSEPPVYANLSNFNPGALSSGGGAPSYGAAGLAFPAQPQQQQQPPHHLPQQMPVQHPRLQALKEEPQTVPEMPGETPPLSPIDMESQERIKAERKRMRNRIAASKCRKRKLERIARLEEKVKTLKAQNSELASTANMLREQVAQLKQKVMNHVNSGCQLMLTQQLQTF

The target in one test is SFB-tagged MAX (human) (UniProt P61244). As to the kind of experiment: affinity purification with mass spectrometry; same TAP/MS of SFB-tagged bait from HEK293T; the fraction in which the hit was found is not given.
The target of test [1] is JUN (endogenous) (human (endogenous in HEK293T)) (UniProt P05412). Nature of the test: affinity purification with mass spectrometry; AP/MS with antibodies against endogenous JUN; soluble fraction.
Test [2] has as its target T1, SFB-tagged NFATC1 (human) (UniProt O95644).
T1 sequence: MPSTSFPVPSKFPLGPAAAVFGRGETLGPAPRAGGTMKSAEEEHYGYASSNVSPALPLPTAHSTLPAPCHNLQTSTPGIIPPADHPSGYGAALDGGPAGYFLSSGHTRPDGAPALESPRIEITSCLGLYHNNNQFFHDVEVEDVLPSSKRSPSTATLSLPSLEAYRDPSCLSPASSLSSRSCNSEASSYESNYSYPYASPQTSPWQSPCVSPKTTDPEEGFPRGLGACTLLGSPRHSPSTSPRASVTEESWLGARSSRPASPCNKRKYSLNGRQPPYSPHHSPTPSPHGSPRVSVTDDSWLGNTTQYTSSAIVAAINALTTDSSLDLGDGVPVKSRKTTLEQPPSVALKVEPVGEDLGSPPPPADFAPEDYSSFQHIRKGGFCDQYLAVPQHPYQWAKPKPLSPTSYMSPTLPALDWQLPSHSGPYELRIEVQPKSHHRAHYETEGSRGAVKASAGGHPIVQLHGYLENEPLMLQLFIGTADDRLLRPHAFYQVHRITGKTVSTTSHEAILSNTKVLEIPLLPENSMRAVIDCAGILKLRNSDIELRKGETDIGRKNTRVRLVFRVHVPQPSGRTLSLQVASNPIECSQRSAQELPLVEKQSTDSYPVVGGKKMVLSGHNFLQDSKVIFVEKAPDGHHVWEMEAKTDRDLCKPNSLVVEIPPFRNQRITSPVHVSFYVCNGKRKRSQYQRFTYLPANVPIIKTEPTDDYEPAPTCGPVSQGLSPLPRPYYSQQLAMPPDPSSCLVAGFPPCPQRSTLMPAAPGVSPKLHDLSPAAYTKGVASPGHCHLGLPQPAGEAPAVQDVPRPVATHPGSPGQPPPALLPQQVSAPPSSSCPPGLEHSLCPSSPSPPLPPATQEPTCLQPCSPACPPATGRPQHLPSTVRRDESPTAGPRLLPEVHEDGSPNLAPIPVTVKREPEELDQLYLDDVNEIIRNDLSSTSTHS
Nature of the test: affinity purification with mass spectrometry; TAP (streptavidin beads, biotin elution, S-protein beads; NETN buffer) of C-terminally SFB-tagged bait from HEK293T; soluble fraction (supernatant of the NETN lysate); forward and reciprocal purifications.

In test [3] the target is JUN (endogenous) (human (endogenous in HEK293T)) (UniProt P05412). As to the kind of experiment: affinity purification with mass spectrometry; AP/MS with antibodies against endogenous JUN; chromatin fraction.
Test [4] addresses T1, SFB-tagged NFATC1 (human). Nature of the test: affinity purification with mass spectrometry; TAP (streptavidin beads, biotin elution, S-protein beads; NETN buffer) of C-terminally SFB-tagged bait from HEK293T; chromatin fraction (pellet after NETN lysis, digested with TurboNuclease); forward and reciprocal purifications; some baits also after drug treatment.

Results are given in words; binding and its absence hold for the method and conditions named. In cells and extracts the contact can be indirect. Here binding means that the protein was enriched with, or labelled near, the bait; the list need not be complete. For some of these results: No binding means not detected with the bait. For some of these results: Tags and fused reporters may be left off the sequences shown.

B1: MORC2 (endogenous) (protein, UniProt Q9Y6X9 1-1032)
chain: MAFTNYSSLNRAQLTFEYLHTNSTTHEFLFGALAELVDNARDADATRIDIYAERREDLRGGFMLCFLDDGAGMDPSDAASVIQFGKSAKRTPESTQIGQYGNGLKSGSMRIGKDFILFTKKEDTMTCLFLSRTFHEEEGIDEVIVPLPTWNARTREPVTDNVEKFAIETELIYKYSPFRTEEEVMTQFMKIPGDSGTLVIIFNLKLMDNGEPELDIISNPRDIQMAETSPEGTKPERRSFRAYAAVLYIDPRMRIFIHGHKVQTKRLSCCLYKPRMYKYTSSRFKTRAEQEVKKAEHVARIAEEKAREAESKARTLEVRLGGDLTRDSRVMLRQVQNRAITLRREADVKKRIKEAKQRALKEPKELNFVFGVNIEHRDLDGMFIYNCSRLIKMYEKVGPQLEGGMACGGVVGVVDVPYLVLEPTHNKQDFADAKEYRHLLRAMGEHLAQYWKDIAIAQRGIIKFWDEFGYLSANWNQPPSSELRYKRRRAMEIPTTIQCDLCLKWRTLPFQLSSVEKDYPDTWVCSMNPDPEQDRCEASEQKQKVPLGTFRKDMKTQEEKQKQLTEKIRQQQEKLEALQKTTPIRSQADLKKLPLEVTTRPSTEEPVRRPQRPRSPPLPAVIRNAPSRPPSLPTPRPASQPRKAPVISSTPKLPALAAREEASTSRLLQPPEAPRKPANTLVKTASRPAPLVQQLSPSLLPNSKSPREVPSPKVIKTPVVKKTESPIKLSPATPSRKRSVAVSDEEEVEEEAERRKERCKRGRFVVKEEKKDSNELSDSAGEEDSADLKRAQKDKGLHVEVRVNREWYTGRVTAVEVGKHVVRWKVKFDYVPTDTTPRDRWVEKGSEDVRLMKPPSPEHQSLDTQQEGGEEEVGPVAQQAIAVAEPSTSECLRIEPDTTALSTNHETIDLLVQILRNCLRYFLPPSFPISKKQLSAMNSDELISFPLKEYFKQYEVGLQNLCNSYQSRADSRAKASEESLRTSERKLRETEEKLQKLRTNIVALLQKVQEDIDINTDDELDAYIEDLITKGD
As to B1, the binding result with SFB-tagged MAX (human) is on record as “binds”.

B2: SAP130 (endogenous) (protein, UniProt Q9H0E3 1-1048)
chain: MGPPRHPQAGEIEAGGAGGGRRLQVEMSSQQFPRLGAPSTGLSQAPSQIANSGSAGLINPAATVNDESGRDSEVSAREHMSSSSSLQSREEKQEPVVVRPYPQVQMLSTHHAVASATPVAVTAPPAHLTPAVPLSFSEGLMKPPPKPTMPSRPIAPAPPSTLSLPPKVPGQVTVTMESSIPQASAIPVATISGQQGHPSNLHHIMTTNVQMSIIRSNAPGPPLHIGASHLPRGAAAAAVMSSSKVTTVLRPTSQLPNAATAQPAVQHIIHQPIQSRPPVTTSNAIPPAVVATVSATRAQSPVITTTAAHATDSALSRPTLSIQHPPSAAISIQRPAQSRDVTTRITLPSHPALGTPKQQLHTMAQKTIFSTGTPVAAATVAPILATNTIPSATTAGSVSHTQAPTSTIVTMTVPSHSSHATAVTTSNIPVAKVVPQQITHTSPRIQPDYPAERSSLIPISGHRASPNPVAMETRSDNRPSVPVQFQYFLPTYPPSAYPLAAHTYTPITSSVSTIRQYPVSAQAPNSAITAQTGVGVASTVHLNPMQLMTVDASHARHIQGIQPAPISTQGIQPAPIGTPGIQPAPLGTQGIHSATPINTQGLQPAPMGTQQPQPEGKTSAVVLADGATIVANPISNPFSAAPAATTVVQTHSQSASTNAPAQGSSPRPSILRKKPATDGAKPKSEIHVSMATPVTVSMETVSNQNNDQPTIAVPPTAQQPPPTIPTMIAAASPPSQPAVALSTIPGAVPITPPITTIAAAPPPSVTVGGSLSSVLGPPVPEIKVKEEVEPMDIMRPVSAVPPLATNTVSPSLALLANNLSMPTSDLPPGASPRKKPRKQQHVISTEEGDMMETNSTDDEKSTAKSLLVKAEKRKSPPKEYIDEEGVRYVPVRPRPPITLLRHYRNPWKAAYHHFQRYSDVRVKEEKKAMLQEIANQKGVSCRAQGWKVHLCAAQLLQLTNLEHDVYERLTNLQEGIIPKKKAATDDDLHRINELIQGNMQRCKLVMDQISEARDSMLKVLDHKDRVLKLLNKNGTVKKVSKLKRKEKV
With B2, in the test with SFB-tagged MAX (human), the binding result is given as “binds”.

B3: ATF3 (endogenous) (protein, UniProt P18847 1-181)
chain: MMLQHPGQVSASEVSASAIVPCLSPPGSLVFEDFANLTPFVKEELRFAIQNKHLCHRMSSALESVTVSDRPLGVSITKAEVAPEEDERKKRRRERNKIAAAKCRNKKKEKTECLQKESEKLESVNAELKAQIEELKNEKQHLIYMLNLHRPTCIVRAQNGRTPEDERNLFIQQIKEGTLQS
For the molecule B3, the binding result in test [1] is reported as “binds”; in test [2], “no binding (only in the soluble fraction)”; in test [3], “binds”; in test [4], “binds”.

B4: ARID4B (endogenous) (protein, UniProt Q4LE39 1-1312)
chain: MKALDEPPYLTVGTDVSAKYRGAFCEAKIKTAKRLVKVKVTFRHDSSTVEVQDDHIKGPLKVGAIVEVKNLDGAYQEAVINKLTDASWYTVVFDDGDEKTLRRSSLCLKGERHFAESETLDQLPLTNPEHFGTPVIGKKTNRGRRSNHIPEEESSSSSSDEDEDDRKQIDELLGKVVCVDYISLDKKKALWFPALVVCPDCSDEIAVKKDNILVRSFKDGKFTSVPRKDVHEITSDTAPKPDAVLKQAFEQALEFHKSRTIPANWKTELKEDSSSSEAEEEEEEEDDEKEKEDNSSEEEEEIEPFPEERENFLQQLYKFMEDRGTPINKRPVLGYRNLNLFKLFRLVHKLGGFDNIESGAVWKQVYQDLGIPVLNSAAGYNVKCAYKKYLYGFEEYCRSANIEFQMALPEKVVNKQCKECENVKEIKVKEENETEIKEIKMEEERNIIPREEKPIEDEIERKENIKPSLGSKKNLLESIPTHSDQEKEVNIKKPEDNENLDDKDDDTTRVDESLNIKVEAEEEKAKSGDETNKEEDEDDEEAEEEEEEEEEEEDEDDDDNNEEEEFECYPPGMKVQVRYGRGKNQKMYEASIKDSDVEGGEVLYLVHYCGWNVRYDEWIKADKIVRPADKNVPKIKHRKKIKNKLDKEKDKDEKYSPKNCKLRRLSKPPFQTNPSPEMVSKLDLTDAKNSDTAHIKSIEITSILNGLQASESSAEDSEQEDERGAQDMDNNGKEESKIDHLTNNRNDLISKEEQNSSSLLEENKVHADLVISKPVSKSPERLRKDIEVLSEDTDYEEDEVTKKRKDVKKDTTDKSSKPQIKRGKRRYCNTEECLKTGSPGKKEEKAKNKESLCMENSSNSSSDEDEEETKAKMTPTKKYNGLEEKRKSLRTTGFYSGFSEVAEKRIKLLNNSDERLQNSRAKDRKDVWSSIQGQWPKKTLKELFSDSDTEAAASPPHPAPEEGVAEESLQTVAEEESCSPSVELEKPPPVNVDSKPIEEKTVEVNDRKAEFPSSGSNSVLNTPPTTPESPSSVTVTEGSRQQSSVTVSEPLAPNQEEVRSIKSETDSTIEVDSVAGELQDLQSEGNSSPAGFDASVSSSSSNQPEPEHPEKACTGQKRVKDAQGGGSSSKKQKRSHKATVVNNKKKGKGTNSSDSEELSAGESITKSQPVKSVSTGMKSHSTKSPARTQSPGKCGKNGDKDPDLKEPSNRLPKVYKWSFQMSDLENMTSAERITILQEKLQEIRKHYLSLKSEVASIDRRRKRLKKKERESAATSSSSSSPSSSSITAAVMLTLAEPSMSSASQNGMSVECR
B4: the binding entry with SFB-tagged MAX (human) is recorded as “binds”.

B5: ATF2 (endogenous) (protein, UniProt P15336 1-505)
chain: MKFKLHVNSARQYKDLWNMSDDKPFLCTAPGCGQRFTNEDHLAVHKHKHEMTLKFGPARNDSVIVADQTPTPTRFLKNCEEVGLFNELASPFENEFKKASEDDIKKMPLDLSPLATPIIRSKIEEPSVVETTHQDSPLPHPESTTSDEKEVPLAQTAQPTSAIVRPASLQVPNVLLTSSDSSVIIQQAVPSPTSSTVITQAPSSNRPIVPVPGPFPLLLHLPNGQTMPVAIPASITSSNVHVPAAVPLVRPVTMVPSVPGIPGPSSPQPVQSEAKMRLKAALTQQHPPVTNGDTVKGHGSGLVRTQSEESRPQSLQQPATSTTETPASPAHTTPQTQSTSGRRRRAANEDPDEKRRKFLERNRAAASRCRQKRKVWVQSLEKKAEDLSSLNGQLQSEVTLLRNEVAQLKQLLLAHKDCPVTAMQKKSGYHTADKDDSSEDISVPSSPHTEAIQHSSVSTSNGVSSTSKAEAVATSVLTQMADQSTEPALSQIVMAPSSQSQPSGS
Take B5: the binding entry in test [2] is reported as “no binding (only in the soluble fraction)”; in test [4] it was “binds”.

B6: ATF7 (endogenous) (protein, UniProt P17544 1-483)
chain: MGDDRPFVCNAPGCGQRFTNEDHLAVHKHKHEMTLKFGPARTDSVIIADQTPTPTRFLKNCEEVGLFNELASSFEHEFKKAADEDEKKAAAGPLDMSLPSTPDIKIKEEEPVEVDSSPPDSPASSPCSPPLKEKEVTPKPVLISTPTPTIVRPGSLPLHLGYDPLHPTLPSPTSVITQAPPSNRQMGSPTGSLPLVMHLANGQTMPVLPGPPVQMPSVISLARPVSMVPNIPGIPGPPVNSSGSISPSGHPIPSEAKMRLKATLTHQVSSINGGCGMVVGTASTMVTARPEQSQILIQHPDAPSPAQPQVSPAQPTPSTGGRRRRTVDEDPDERRQRFLERNRAAASRCRQKRKLWVSSLEKKAEELTSQNIQLSNEVTLLRNEVAQLKQLLLAHKDCPVTALQKKTQGYLESPKESSEPTGSPAPVIQHSSATAPSNGLSVRSAAEAVATSVLTQMASQRTELSMPIQSHVIMTPQSQSAGR
For the molecule B6, the binding result is “binds” in test [1], “no binding (only in the soluble fraction)” in test [2], “binds” in test [3] and “binds” in test [4].
